{"sequences": {"note": "Amino acid sequences for entries named in this document (tags omitted). A change or cut given only in a name is not applied to a line headed by its entry.", "UniProt P06526": "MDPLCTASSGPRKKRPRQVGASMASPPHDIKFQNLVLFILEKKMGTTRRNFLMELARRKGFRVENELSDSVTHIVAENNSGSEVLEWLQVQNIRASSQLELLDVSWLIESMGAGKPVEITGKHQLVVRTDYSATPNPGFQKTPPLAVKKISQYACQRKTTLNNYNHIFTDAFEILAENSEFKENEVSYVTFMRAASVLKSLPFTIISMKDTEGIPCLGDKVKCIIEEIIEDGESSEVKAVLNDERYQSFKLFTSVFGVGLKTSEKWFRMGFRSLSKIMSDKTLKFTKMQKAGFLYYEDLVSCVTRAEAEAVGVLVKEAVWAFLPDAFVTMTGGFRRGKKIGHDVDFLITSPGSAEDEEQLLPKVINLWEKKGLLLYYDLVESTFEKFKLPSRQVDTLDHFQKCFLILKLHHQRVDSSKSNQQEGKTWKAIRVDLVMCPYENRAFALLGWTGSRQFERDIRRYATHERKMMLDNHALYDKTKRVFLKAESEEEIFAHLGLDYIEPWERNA"}, "source": "the supplement of paper PMC8291772", "note": "± gives the standard error. Some of the results follow. Repeats in this data set agree poorly, so a single value says little.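 The library contained all possible DNA sequences one to five nucleotides in length. General extension ability was assessed against a threshold of the blocked-version mean plus three standard deviations, and the probe detects only chains extended by seven or more dT.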"}
{"target": "terminal deoxynucleotidyl transferase (calf thymus) (UniProt P06526)", "assay": "TdT poly-dT extension signal (Cy3 hybridisation fluorescence, uncapped minus capped) (fluorescence a.u.); higher = more efficient initiation of TdT extension", "details": "initiator chemistry: D-DNA, free 3'-OH (5'-tethered via HEG linker)", "protocol": "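All mono- to pentamer initiator sequences were made by photolithographic in situ synthesis (reverse 5'->3' direction) on glass on a single hexaethylene glycol linker. Each was made in uncapped and DMTr-dT-capped versions, about 11 replicate features each. Arrays were extended with calf thymus TdT (0.2 U/uL) and 100 uM dTTP in TdT buffer with 0.25 mM CoCl2 for 120 min at 37 C, then hybridised with an rA18-Cy3 probe at 4 C and scanned at 532 nm. The value is the mean uncapped signal minus the mean capped signal of the same sequence.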"}
{"sequence": "ATAT", "TdT poly-dT extension signal": "3310 ± 330"}
{"sequence": "TATAG", "TdT poly-dT extension signal": "3030 ± 500"}
{"sequence": "TTGG", "TdT poly-dT extension signal": "3610 ± 380"}
{"sequence": "TAATG", "TdT poly-dT extension signal": "3780 ± 360"}
{"sequence": "CGAAA", "TdT poly-dT extension signal": "3180 ± 590"}
{"sequence": "TGACC", "TdT poly-dT extension signal": "3260 ± 220"}
{"sequence": "TTTAG", "TdT poly-dT extension signal": "4010 ± 440"}
{"sequence": "CAGGT", "TdT poly-dT extension signal": "3740 ± 380"}
{"sequence": "CCTT", "TdT poly-dT extension signal": "3660 ± 260"}
{"sequence": "GGGAG", "TdT poly-dT extension signal": "4310 ± 510"}
{"sequence": "TTATC", "TdT poly-dT extension signal": "3090 ± 220"}
{"sequence": "TCAA", "TdT poly-dT extension signal": "3760 ± 590"}
{"sequence": "CCCTA", "TdT poly-dT extension signal": "3510 ± 440"}
{"sequence": "TGTG", "TdT poly-dT extension signal": "3200 ± 320"}
{"sequence": "TCGAT", "TdT poly-dT extension signal": "3740 ± 340"}
{"sequence": "TACCT", "TdT poly-dT extension signal": "2930 ± 320"}
{"sequence": "CCCG", "TdT poly-dT extension signal": "3790 ± 430"}
{"sequence": "AGTCC", "TdT poly-dT extension signal": "2470 ± 250"}
{"sequence": "TGAT", "TdT poly-dT extension signal": "3910 ± 600"}
{"sequence": "GGGGC", "TdT poly-dT extension signal": "5320 ± 900"}
{"sequence": "TGGGC", "TdT poly-dT extension signal": "3640 ± 320"}
{"sequence": "TCAGC", "TdT poly-dT extension signal": "3160 ± 390"}
{"sequence": "GTCCC", "TdT poly-dT extension signal": "2290 ± 280"}
{"sequence": "CCGCC", "TdT poly-dT extension signal": "3520 ± 280"}
{"sequence": "TCAAT", "TdT poly-dT extension signal": "3450 ± 430"}
{"sequence": "TAGAA", "TdT poly-dT extension signal": "4110 ± 400"}
{"sequence": "ATCTA", "TdT poly-dT extension signal": "3750 ± 300"}
{"sequence": "TGAAG", "TdT poly-dT extension signal": "3840 ± 840"}
{"sequence": "TGGCC", "TdT poly-dT extension signal": "3130 ± 350"}
{"sequence": "TTATT", "TdT poly-dT extension signal": "4470 ± 380"}
{"sequence": "CATGC", "TdT poly-dT extension signal": "3190 ± 320"}
{"sequence": "GCGGA", "TdT poly-dT extension signal": "4460 ± 440"}
{"sequence": "ATTTC", "TdT poly-dT extension signal": "2610 ± 280"}
{"sequence": "GATTG", "TdT poly-dT extension signal": "3190 ± 580"}
{"sequence": "CACAC", "TdT poly-dT extension signal": "3090 ± 390"}
{"sequence": "TCAAA", "TdT poly-dT extension signal": "3940 ± 560"}
{"sequence": "CATAA", "TdT poly-dT extension signal": "4550 ± 330"}
{"sequence": "GCGAA", "TdT poly-dT extension signal": "4890 ± 820"}
{"sequence": "TTCGA", "TdT poly-dT extension signal": "4180 ± 760"}
{"sequence": "CTGGC", "TdT poly-dT extension signal": "3500 ± 350"}
{"sequence": "GTTGT", "TdT poly-dT extension signal": "3960 ± 320"}
{"sequence": "CGCGG", "TdT poly-dT extension signal": "5130 ± 650"}
{"sequence": "GGTG", "TdT poly-dT extension signal": "3990 ± 490"}
{"sequence": "AGGGC", "TdT poly-dT extension signal": "3550 ± 380"}
{"sequence": "GGAGA", "TdT poly-dT extension signal": "4670 ± 540"}
{"sequence": "GGCTC", "TdT poly-dT extension signal": "2560 ± 220"}
{"sequence": "ACCTT", "TdT poly-dT extension signal": "3770 ± 260"}
{"sequence": "ATAAT", "TdT poly-dT extension signal": "3860 ± 390"}
{"sequence": "AAACG", "TdT poly-dT extension signal": "4370 ± 500"}
{"sequence": "AAAGT", "TdT poly-dT extension signal": "2930 ± 430"}
{"sequence": "TTGGG", "TdT poly-dT extension signal": "4830 ± 320"}
{"sequence": "TTAGC", "TdT poly-dT extension signal": "3700 ± 330"}
{"sequence": "AAATG", "TdT poly-dT extension signal": "4140 ± 240"}
{"sequence": "AAGAC", "TdT poly-dT extension signal": "2560 ± 400"}
{"sequence": "TATAC", "TdT poly-dT extension signal": "2720 ± 240"}
{"sequence": "CTACG", "TdT poly-dT extension signal": "3390 ± 680"}
{"sequence": "GTAAT", "TdT poly-dT extension signal": "3710 ± 310"}
{"sequence": "ATTAC", "TdT poly-dT extension signal": "2680 ± 380"}
{"sequence": "GGGTC", "TdT poly-dT extension signal": "3380 ± 380"}
{"sequence": "TATCT", "TdT poly-dT extension signal": "3080 ± 300"}
{"sequence": "ATAGT", "TdT poly-dT extension signal": "3790 ± 330"}
{"sequence": "CTAAA", "TdT poly-dT extension signal": "3790 ± 410"}
{"sequence": "GTGG", "TdT poly-dT extension signal": "3420 ± 440"}
{"sequence": "ACAGA", "TdT poly-dT extension signal": "3390 ± 460"}
{"sequence": "GAAT", "TdT poly-dT extension signal": "3620 ± 380"}
{"sequence": "TATGT", "TdT poly-dT extension signal": "3920 ± 300"}
{"sequence": "AGCG", "TdT poly-dT extension signal": "3140 ± 450"}
{"sequence": "ATAGA", "TdT poly-dT extension signal": "3670 ± 420"}
{"sequence": "AGGGT", "TdT poly-dT extension signal": "4010 ± 300"}
{"sequence": "TCGC", "TdT poly-dT extension signal": "3310 ± 310"}
{"sequence": "AGGTC", "TdT poly-dT extension signal": "2810 ± 320"}
{"sequence": "TTGGT", "TdT poly-dT extension signal": "4360 ± 430"}
{"sequence": "GCGA", "TdT poly-dT extension signal": "2810 ± 480"}
{"sequence": "CTGT", "TdT poly-dT extension signal": "3650 ± 340"}
{"sequence": "CTTA", "TdT poly-dT extension signal": "3560 ± 240"}
{"sequence": "AGAAT", "TdT poly-dT extension signal": "2880 ± 550"}
{"sequence": "TTCAC", "TdT poly-dT extension signal": "3450 ± 270"}
{"sequence": "TTAA", "TdT poly-dT extension signal": "2920 ± 380"}
{"sequence": "CACGT", "TdT poly-dT extension signal": "4340 ± 590"}
{"sequence": "TGGTA", "TdT poly-dT extension signal": "5260 ± 1000"}
{"sequence": "CGAGC", "TdT poly-dT extension signal": "3040 ± 350"}
{"sequence": "CGCAC", "TdT poly-dT extension signal": "3570 ± 250"}
{"sequence": "GGCGG", "TdT poly-dT extension signal": "3670 ± 460"}
{"sequence": "TTGT", "TdT poly-dT extension signal": "3800 ± 190"}
{"sequence": "ACTG", "TdT poly-dT extension signal": "4030 ± 320"}
{"sequence": "GTCC", "TdT poly-dT extension signal": "2620 ± 330"}
{"sequence": "AAGTG", "TdT poly-dT extension signal": "3120 ± 410"}
{"sequence": "GCCCA", "TdT poly-dT extension signal": "3560 ± 280"}
{"sequence": "GTTGA", "TdT poly-dT extension signal": "4240 ± 620"}
{"sequence": "AACCC", "TdT poly-dT extension signal": "2900 ± 320"}
{"sequence": "CGTGG", "TdT poly-dT extension signal": "3360 ± 370"}
{"sequence": "TACG", "TdT poly-dT extension signal": "2910 ± 230"}
{"sequence": "CGGAC", "TdT poly-dT extension signal": "2980 ± 380"}
{"sequence": "ATATG", "TdT poly-dT extension signal": "3240 ± 330"}
{"sequence": "TCCGT", "TdT poly-dT extension signal": "3880 ± 360"}
{"sequence": "ACTAG", "TdT poly-dT extension signal": "4430 ± 800"}
{"sequence": "TTACA", "TdT poly-dT extension signal": "4130 ± 440"}
{"sequence": "CATT", "TdT poly-dT extension signal": "3060 ± 420"}
{"sequence": "CTCC", "TdT poly-dT extension signal": "3330 ± 280"}
{"sequence": "AGTAA", "TdT poly-dT extension signal": "3250 ± 540"}
{"sequence": "AAGCA", "TdT poly-dT extension signal": "4090 ± 310"}
{"sequence": "CTCGG", "TdT poly-dT extension signal": "3930 ± 380"}
{"sequence": "CTCA", "TdT poly-dT extension signal": "3890 ± 390"}
{"sequence": "GCGTG", "TdT poly-dT extension signal": "3780 ± 300"}
{"sequence": "GCTCG", "TdT poly-dT extension signal": "3850 ± 650"}
{"sequence": "ATCC", "TdT poly-dT extension signal": "2650 ± 320"}
{"sequence": "GAGCG", "TdT poly-dT extension signal": "4010 ± 340"}
{"sequence": "TAGC", "TdT poly-dT extension signal": "3070 ± 380"}
{"sequence": "CCCGG", "TdT poly-dT extension signal": "3930 ± 510"}
{"sequence": "ACTGC", "TdT poly-dT extension signal": "3140 ± 400"}
{"sequence": "CTATG", "TdT poly-dT extension signal": "2250 ± 540"}
{"sequence": "TCGAC", "TdT poly-dT extension signal": "2960 ± 380"}
{"sequence": "GTCGA", "TdT poly-dT extension signal": "4040 ± 640"}
{"sequence": "CACC", "TdT poly-dT extension signal": "3310 ± 330"}
{"sequence": "GTTAT", "TdT poly-dT extension signal": "2860 ± 380"}
{"sequence": "GGGT", "TdT poly-dT extension signal": "3680 ± 340"}
{"sequence": "GAGA", "TdT poly-dT extension signal": "2940 ± 490"}
{"sequence": "TGTGT", "TdT poly-dT extension signal": "3410 ± 390"}
